# Laboratory results: PubChem BioAssay AID1117319 (Southern Research Institute, 2015)
# By UniProt entry, the sequences of proteins in these tests, tags left out. Where a name states a change or a piece, a line headed by the entry shows the natural chain unless it says otherwise.
# UniProt P69720: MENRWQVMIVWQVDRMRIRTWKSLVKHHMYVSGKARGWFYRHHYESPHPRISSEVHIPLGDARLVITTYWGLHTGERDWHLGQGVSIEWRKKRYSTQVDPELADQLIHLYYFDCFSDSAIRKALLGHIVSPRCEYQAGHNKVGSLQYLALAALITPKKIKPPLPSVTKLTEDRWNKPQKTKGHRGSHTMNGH
# UniProt P69721: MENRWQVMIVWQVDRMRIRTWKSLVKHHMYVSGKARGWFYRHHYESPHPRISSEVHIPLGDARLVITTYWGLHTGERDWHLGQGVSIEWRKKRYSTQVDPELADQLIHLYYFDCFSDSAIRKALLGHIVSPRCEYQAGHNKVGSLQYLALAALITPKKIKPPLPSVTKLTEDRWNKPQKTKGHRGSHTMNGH
# UniProt P69722: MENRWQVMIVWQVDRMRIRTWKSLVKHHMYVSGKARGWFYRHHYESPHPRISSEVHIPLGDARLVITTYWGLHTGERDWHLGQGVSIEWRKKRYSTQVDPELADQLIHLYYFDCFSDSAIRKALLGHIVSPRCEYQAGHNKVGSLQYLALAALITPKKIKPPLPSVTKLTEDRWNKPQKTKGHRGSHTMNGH
# UniProt P69723: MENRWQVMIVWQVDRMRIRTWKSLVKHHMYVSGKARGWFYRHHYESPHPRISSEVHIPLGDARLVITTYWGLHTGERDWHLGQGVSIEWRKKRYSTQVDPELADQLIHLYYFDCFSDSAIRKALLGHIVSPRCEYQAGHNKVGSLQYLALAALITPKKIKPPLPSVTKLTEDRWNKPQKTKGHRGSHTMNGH
# UniProt Q9HC16: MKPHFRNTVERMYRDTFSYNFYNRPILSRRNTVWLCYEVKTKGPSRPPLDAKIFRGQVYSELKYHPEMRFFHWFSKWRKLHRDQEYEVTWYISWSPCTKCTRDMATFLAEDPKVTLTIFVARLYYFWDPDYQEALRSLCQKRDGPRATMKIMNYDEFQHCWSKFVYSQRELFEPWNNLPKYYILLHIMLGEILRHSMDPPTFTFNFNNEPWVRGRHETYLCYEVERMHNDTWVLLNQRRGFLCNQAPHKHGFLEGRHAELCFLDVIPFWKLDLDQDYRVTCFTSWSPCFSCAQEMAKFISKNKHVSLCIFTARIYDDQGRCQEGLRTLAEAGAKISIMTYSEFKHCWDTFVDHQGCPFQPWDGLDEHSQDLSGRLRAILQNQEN
# About 1,500 (0.58%) of roughly 260,000 compounds were called active. This list was built around the results that the source calls inconclusive (neither active nor inactive); the mix of calls is not that of the screen.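 The calls were made as follows: active = inhibition above a set limit at one or more doses, reproduced on every date tested; inconclusive = results disagree between test dates, or hit never tested in dose response; inactive = the rest.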
# Biological target: Virion infectivity factor (Human immunodeficiency virus type 1 group M subtype B (isolate BH10)) + Virion infectivity factor (Human immunodeficiency virus type 1 group M subtype B (isolate BRU/LAI)) + Virion infectivity factor (Human immunodeficiency virus type 1 group M subtype B (isolate PCV12)) + Virion infectivity factor (Human immunodeficiency virus type 1 group M subtype B (isolate HXB2)) + DNA dC->dU-editing enzyme APOBEC-3G (Homo sapiens) (UniProt P69720+P69721+P69722+P69723+Q9HC16)
# Assay: inhibitors of Vif binding to APOBEC3G peptide, primary screen, biochemical, TR-FRET, GST-Vif 1-94, biotin-A3G peptide, dose response retest (AID 1117319);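 also: Vif residues 1-94 fused to GST binding biotinylated APOBEC3G peptide 110-148; 0% = full assay without inhibitor and 100% = GST in place of GST-Vif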
# Details: stronger effect = higher value
row,Structure (SMILES),inhibition
1,CCN(CC)c1nc2c3c(nc4c(c3c1C#N)CC(=O)N4c1ccc(Cl)cc1)NC(C)=N2,inconclusive: 42.8%
2,O=C(N/N=C/c1sc(=O)n(-c2ccccc2)c1Cl)c1ccncc1,inconclusive: 36.4%
3,Cc1cc(C(=O)N/N=C/c2ccc(-c3cccc(Cl)c3Cl)o2)n[nH]1,inconclusive: 47.5%
4,CC1CCN(C(=S)Nc2cccc(S(=O)(=O)N(C)C)c2)CC1,inconclusive: 57.1%
5,C/C(CCC(=O)OC[C@H]1O[C@H](C#Cc2ccccc2)C=C[C@@H]1Oc1ccc(C)cc1)=N\OC[C@@H](O)[C@H]1O[C@@H]2OC(C)(C)O[C@@H]2[C@H]1O,inconclusive: 41.9%
6,Nc1n[nH]c(=S)n1/N=C1/C(=O)Nc2ccccc21,inconclusive: 63.7%
7,CC1(C)CC(=O)C(C=Nc2cccnc2/N=C/C2=C(O)CC(C)(C)CC2=O)=C(O)C1,inconclusive: 55.2%
8,O=C(O)COc1ccccc1C(Nc1ccccn1)c1cc(Cl)c2cccnc2c1O (configuration not stated),inconclusive: 61.8%
9,CC(NS(=O)(=O)c1ccc(CCC(=O)N2CCN(C)CC2)cc1)c1ccccc1 (configuration not stated),inconclusive: 33.3%
10,COc1ccc2c(c1)c1c(n2C(C)=O)C(OC(C)=O)=NCC1,inconclusive: 38.3%
11,O=C(/C=N/O)NCc1cccnc1,inactive: -3.6%
12,Cc1ccc2c(c1)CCCN2C(=O)c1ccc2c(c1)OCO2,inconclusive: 44%
13,O=c1[nH]c2ccccc2nc1-c1ccc(Cl)cc1,inconclusive: 36.1%
14,c1csc(-c2nc3ccccn3c2NC2CCCCC2)c1,inconclusive: 42.6%
15,COC(=O)c1cc(NS(=O)(=O)c2ccc(C(C)C)cc2)ccc1N1CCOCC1,inconclusive: 40.5%
16,COc1ccc(OC)c(-c2cc(C(=O)Nc3c(C)nn(Cc4ccccc4)c3C)no2)c1,inconclusive: 40.3%
17,CCOC(=O)C1=C(N)n2c(s/c(=C/c3ccccc3)c2=O)=C(C(=O)OCC)C1c1ccccc1 (configuration not stated),inactive: -3.94%
18,O=C(O)c1cn(-c2ccc(N3CCCC3)c(F)c2)c2c(F)c(F)c(F)cc2c1=O,inconclusive: 45.3%
19,COC(=O)C/C=C/[C@@H](C)[C@@H](/C=N/O[C@H](C)c1cn([C@@H]2COC[C@H]2O)nn1)NS(=O)(=O)c1ccc(C)cc1,inconclusive: 35%
20,CCOCc1nnc(NC(=O)c2ccc(OC)cc2)s1,inconclusive: 40.1%
21,Cc1ccc(NC(=S)N(CCN2CCOCC2)Cc2cc3cc4c(cc3[nH]c2=O)OCCO4)cc1,inconclusive: 44%
22,CS(=O)(=O)Nc1ccccc1C(=O)Nc1ccccc1Cl,inconclusive: 53.7%

# In another format: 2 of the compounds above.
row | Structure (SMILES) | inhibition
2 | O=C(N/N=C/c1sc(=O)n(-c2ccccc2)c1Cl)c1ccncc1 | inconclusive: 36.4%
11 | O=C(/C=N/O)NCc1cccnc1 | inactive: -3.6%
